The supplement of paper PMC9233669
Variants at the floor of the assay are shown more often than the library holds them.

What was measured:
[1] = tested on: biotinyl-Trp-oxazolone; assay: self-aminoacylation, catalytic enhancement (BWO) (fold over background); higher = more active; k-Seq, kA / k0A0; sequences stand for … in GGGAAUGGAUCCACAUCUACGAAUUC…UUCACUGCAGACUUGACGAAGCUG
Summary of the method: (§1)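 Each biotinyl-aminoacyl-oxazolone, at 2–1250 μM, was incubated with mutagenized RNA pools (0.43 μM) carrying a 21-nt variable region. The 50 μL reactions contained HEPES/NaCl/KCl/MgCl2/CaCl2 buffer with 5% acetonitrile at pH 6.9–7.0 and ran for 90 minutes at room temperature. After streptavidin capture, RNA was measured by qPCR in triplicate and by Illumina sequencing, and catalytic enhancement was calculated as median kA over the uncatalyzed rate from a pseudo-first-order fit of per-sequence fraction reacted.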

[2] = tested on: biotinyl-Leu-oxazolone; assay: self-aminoacylation, catalytic enhancement (BLO) (fold over background); higher = more active; k-Seq, kA / k0A0; sequences stand for … in GGGAAUGGAUCCACAUCUACGAAUUC…UUCACUGCAGACUUGACGAAGCUG
Summary of the method: as §1

[3] = tested on: biotinyl-Ile-oxazolone; assay: self-aminoacylation, catalytic enhancement (BIO) (fold over background); higher = more active; k-Seq, kA / k0A0; sequences stand for … in GGGAAUGGAUCCACAUCUACGAAUUC…UUCACUGCAGACUUGACGAAGCUG
Summary of the method: as §1

[4] = tested on: biotinyl-Val-oxazolone; assay: self-aminoacylation, catalytic enhancement (BVO) (fold over background); higher = more active; k-Seq, kA / k0A0; sequences stand for … in GGGAAUGGAUCCACAUCUACGAAUUC…UUCACUGCAGACUUGACGAAGCUG
Summary of the method: as §1

[5] = tested on: biotinyl-Phe-oxazolone; assay: self-aminoacylation, catalytic enhancement (BFO) (fold over background); higher = more active; k-Seq, kA / k0A0; sequences stand for … in GGGAAUGGAUCCACAUCUACGAAUUC…UUCACUGCAGACUUGACGAAGCUG
Summary of the method: as §1

[6] = tested on: biotinyl-Met-oxazolone; assay: self-aminoacylation, catalytic enhancement (BMO) (fold over background); higher = more active; k-Seq, kA / k0A0; sequences stand for … in GGGAAUGGAUCCACAUCUACGAAUUC…UUCACUGCAGACUUGACGAAGCUG
Summary of the method: as §1

Sequence | self-aminoacylation [1] | self-aminoacylation [2] | self-aminoacylation [3] | self-aminoacylation [4] | self-aminoacylation [5] | self-aminoacylation [6]
AGGUUUGCUAAUAGUCGCUAG [Fam3.1 aminoacylation ribozyme variant] | 1.06 | 1.13 | 1.2 | 1.04 | 1.77 | 0.964
AGGUUUGCUAUUAGUCGCAAG [Fam3.1 aminoacylation ribozyme variant] | 1.08 | 1.49 | 1.28 | 1.17 | 3.21 | 1.17
AGUACCCUGGUCAUCGAAUGA [Fam2.1 aminoacylation ribozyme variant] | 1.04 | 1.29 | 1.06 | 1.15 | 1.01 | 0.883
AGUCACCUAGGACAUCGGGUG [Fam2.2 aminoacylation ribozyme variant] | 6.31 | 4.11 | 4.13 | 5.02 | 26.6 | 4.24
AGUCACCUAGGUCACCGGGUG [Fam2.2 aminoacylation ribozyme variant] | 6.49 | 4.38 | 4.07 | 4.47 | 31.7 | 4.49
AGUCACCUAGGUCUUCGGGUG [Fam2.2 aminoacylation ribozyme variant] | 8.99 | 8.46 | 6.51 | 6.48 | 56.4 | 6.75
AGUCACCUAUGUCAUCGGGUG [Fam2.2 aminoacylation ribozyme variant] | 4.85 | 4.74 | 3.74 | 3.19 | 31.8 | 4.37
AUAACCCUGGUCAUAGAGUGA [Fam2.1 aminoacylation ribozyme variant] | 9.78 | 8.65 | 3.62 | 3.61 | 49 | 8.34
AUAACCCUGGUCAUCUAGUGA [Fam2.1 aminoacylation ribozyme variant] | 10.1 | 9.2 | 4.52 | 4.77 | 45.7 | 8.88
AUACACCUAGGUCAUCAGGUG [Fam2.2 aminoacylation ribozyme variant] | 1.59 | 1.02 | 1.19 | 1.32 | 1.39 | 1.12
AUACUUCAAACCAUCGGUCUG [Fam1A.1 aminoacylation ribozyme variant] | 1.07 | 0.902 | 1.1 | 0.917 | 0.887 | 0.774
AUCACCCUGGUCAUCGACUGA [Fam2.1 aminoacylation ribozyme variant] | 0.557 | 0.995 | 0.879 | 1.27 | 1.67 | 1.33
AUCCACCUAGGUCAUCGGGGG [Fam2.2 aminoacylation ribozyme variant] | 4.13 | 5.3 | 4.14 | 2.77 | 2.86 | 3.97
AUCCCCCUAGGUCAUCGGGUG [Fam2.2 aminoacylation ribozyme variant] | 12.6 | 17.6 | 8.62 | 8.74 | 132 | 13.3
AUGACCCUGGUCACCGAGUGA [Fam2.1 aminoacylation ribozyme variant] | 9.23 | 11.7 | 3.68 | 5.03 | 45.5 | 10.5
AUGCACCUAGGUCAUCAGGUG [Fam2.2 aminoacylation ribozyme variant] | 1.19 | 1.57 | 1.13 | 1.49 | 1.15 | 1.39
AUGCACCUGGGUCAUCGGGUG [Fam2.2 aminoacylation ribozyme variant] | 3.63 | 3.18 | 3.37 | 3.8 | 21.2 | 4.33
AUGUUUGCUAAUAGGCGCAAG [Fam3.1 aminoacylation ribozyme variant] | 1.72 | 0.692 | 1.17 | 0.869 | 1.08 | 0.784
AUGUUUGCUAAUAUUCGCAAG [Fam3.1 aminoacylation ribozyme variant] | 1.6 | 1.16 | 1.47 | 1.21 | 1.15 | 1.38
AUGUUUGCUAUUAGUCGCAAG [Fam3.1 aminoacylation ribozyme variant] | 1.91 | 1.33 | 1.42 | 1.63 | 1.53 | 1.39
AUUAACCUAGGUCAUAGGGUG [Fam2.2 aminoacylation ribozyme variant] | 2.08 | 1.74 | 1.29 | 1.36 | 1.19 | 1.41
AUUAACCUAGGUCGUCGGGUG [Fam2.2 aminoacylation ribozyme variant] | 1.42 | 2.01 | 1.38 | 1.42 | 3.08 | 1.7
AUUAACGUGGUCAUCGAGUGA [Fam2.1 aminoacylation ribozyme variant] | 6.07 | 4.72 | 2.95 | 2.75 | 18.6 | 4.88
AUUACACUGGUCAUCGAGUAA [Fam2.1 aminoacylation ribozyme variant] | 1.75 | 1.42 | 1.41 | 1.39 | 0.934 | 1.33
AUUACCACGGUCAUCGAGUGA [Fam2.1 aminoacylation ribozyme variant] | 8.11 | 5.96 | 3.48 | 3.66 | 38.3 | 6.51
AUUACCAUGGUCAUCGAAUGA [Fam2.1 aminoacylation ribozyme variant] | 1.23 | 1.17 | 1.23 | 1.08 | 0.809 | 1.06

Sequence | self-aminoacylation [1] | self-aminoacylation [2] | self-aminoacylation [3] | self-aminoacylation [4] | self-aminoacylation [5] | self-aminoacylation [6]
AUUACCAUGGUGAUCGAGUGA [Fam2.1 aminoacylation ribozyme variant] | 4.4 | 4.04 | 2.33 | 2.4 | 14.7 | 3.59
AUUACCCAGGUCAUCGAGCGA [Fam2.1 aminoacylation ribozyme variant] | 1.89 | 1.73 | 1.53 | 1.79 | 1.14 | 1.92
AUUACCCCUGUCAUCGAGUGA [Fam2.1 aminoacylation ribozyme variant] | 7.28 | 5.42 | 3.62 | 3.14 | 28.2 | 4.96
AUUACCCGGGUCCUCGAGUGA [Fam2.1 aminoacylation ribozyme variant] | 7.11 | 7.78 | 3.5 | 3.84 | 47.4 | 5.42
AUUACCCUAGUCAUCGACUGA [Fam2.1 aminoacylation ribozyme variant] | 0.431 | 0.597 | 0.84 | 0.889 | 0.453 | 0.5
AUUACCCUAGUCAUCGAGCGA [Fam2.1 aminoacylation ribozyme variant] | 1.21 | 1.2 | 1.3 | 1.32 | 0.894 | 1.38
AUUACCCUAGUCAUCGUGUGA [Fam2.1 aminoacylation ribozyme variant] | 2.89 | 2.17 | 1.25 | 1.29 | 5.35 | 2.4
AUUACCCUGAUCACCGAGUGA [Fam2.1 aminoacylation ribozyme variant] | 6.75 | 7.42 | 3.08 | 3.74 | 42.1 | 7.33
AUUACCCUGCUCAUCGAUUGA [Fam2.1 aminoacylation ribozyme variant] | 0.652 | 1.01 | 0.821 | 0.785 | 0.728 | 0.829
AUUACCCUGCUCCUCGAGUGA [Fam2.1 aminoacylation ribozyme variant] | 1.65 | 1.69 | 1.08 | 1.12 | 1.31 | 1.62
AUUACCCUGGACGUCGAGUGA [Fam2.1 aminoacylation ribozyme variant] | 0.545 | 0.911 | 0.737 | 0.826 | 0.734 | 1.02
AUUACCCUGGCCAUAGAGUGA [Fam2.1 aminoacylation ribozyme variant] | 6.32 | 4.73 | 2.6 | 2.51 | 5.34 | 4.15
AUUACCCUGGCCAUCGAGAGA [Fam2.1 aminoacylation ribozyme variant] | 0.803 | 0.919 | 0.69 | 1.01 | 0.439 | 1.02
AUUACCCUGGGCAUCGAGGGA [Fam2.1 aminoacylation ribozyme variant] | 1.54 | 1.72 | 1.26 | 1.51 | 0.92 | 1.53
AUUACCCUGGUAAUCGAGCGA [Fam2.1 aminoacylation ribozyme variant] | 1.01 | 1.75 | 0.97 | 1.25 | 1.15 | 1.77
AUUACCCUGGUAGUCGAGUGA [Fam2.1 aminoacylation ribozyme variant] | 1.84 | 1.46 | 1.29 | 1.4 | 1.7 | 1.72
AUUACCCUGGUCACCAAGUGA [Fam2.1 aminoacylation ribozyme variant] | 7.7 | 6.54 | 3.47 | 3.32 | 34.3 | 6.45
AUUACCCUGGUCACCGAGAGA [Fam2.1 aminoacylation ribozyme variant] | 0.85 | 0.663 | 1.06 | 0.905 | 0.956 | 1.1
AUUACCCUGGUCAGCGAGUUA [Fam2.1 aminoacylation ribozyme variant] | 1.09 | 1.14 | 1.14 | 1.21 | 0.968 | 0.988
AUUACCCUGGUCAUAGAAUGA [Fam2.1 aminoacylation ribozyme variant] | 0.465 | 0.883 | 0.846 | 0.773 | 1.15 | 0.804
AUUACCCUGGUCAUAGAGGGA [Fam2.1 aminoacylation ribozyme variant] | 0.547 | 1.63 | 1.26 | 1.33 | 1.17 | 1.35
AUUACCCUGGUCAUCAAGCGA [Fam2.1 aminoacylation ribozyme variant] | 0.661 | 0.895 | 0.846 | 1.13 | 0.84 | 1
AUUACCCUGGUCAUCGAGACA [Fam2.1 aminoacylation ribozyme variant] | 0.531 | 1.21 | 0.999 | 1.19 | 1.92 | 1.11
AUUACCCUGGUCAUCGAGCUA [Fam2.1 aminoacylation ribozyme variant] | 1.05 | 1.35 | 1.35 | 1.27 | 1.85 | 1.59
AUUACCCUGGUCAUCGAGUCG [Fam2.1 aminoacylation ribozyme variant] | 0.725 | 0.794 | 0.765 | 0.976 | 0.759 | 0.797
